Data source: PubChem BioAssay AID1159578 (Peter MacCallum Cancer Centre, 2015)
Purpose: 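Genome-wide hunt for genes controlling movement of lymphatic endothelial cells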 (primary screen). System: human lymphatic endothelial cells. Reagent: siRNA pool against human genes, 40 nM. Time to read-out: 48 h after transfection. Measured: 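Cells stained with dye and imaged after a scratch; covered wound area and nuclei counted, duplicates averaged, migration set against mock wells and turned into a robust z-score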. Direction: migration robust z-score: higher = faster migration into the scratch; migration relative to mock: higher = more scratch area covered than mock; nuclei per well: higher = more cells in the well. Hit rule: 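Pools averaging fewer than 3300 nuclei are never called; remaining pools count as changed when migration robust z lies outside -2 to 2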. Meaning of the calls: active = migration changed; inactive = no migration change, or too few cells.
Here is an unselected part of about 18,000 reagents tested. In the full data, about 1,030 (5.7%) are marked active. 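Inactive calls also include pools with fewer than 3300 nuclei, whose migration was not assessed.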 The raw values are shown without normalisation.

target gene | PubChem SID | migration robust z-score | migration class with cell-count check | migration relative to mock | nuclei per well, duplicate mean | Call
TCIM | SID255359141 | -1.53 | migration z between -2 and 2; enough cells | 0.49 | 5407 | inactive
RECQL | SID255352082 | 2.18 | migration z above 2; enough cells | 1.23 | 4790 | active
NDUFAF5 | SID255360224 | 0.71 | migration z between -2 and 2; enough cells | 1.07 | 5536 | inactive
EBF1 | SID255349415 | 1.17 | migration z between -2 and 2; enough cells | 1.19 | 6341 | inactive
SOX5 | SID255352575 | 0.71 | migration z between -2 and 2; enough cells | 1.06 | 4866 | inactive
ZCCHC24 | SID255364187 | 1.32 | migration z between -2 and 2; enough cells | 1.23 | 5434 | inactive
BRINP2 | SID255359592 | 0.55 | migration z between -2 and 2; enough cells | 1.03 | 5970 | inactive
PIKFYVE | SID255364043 | -0.16 | migration z between -2 and 2; enough cells | 0.78 | 6284 | inactive
TMEM151A | SID255364530 | 0.21 | migration z between -2 and 2; enough cells | 0.94 | 5874 | inactive
TMEM242 | SID255366201 | -1.94 | migration z between -2 and 2; enough cells | 0.39 | 3976 | inactive
VEGFB | SID255353103 | -0.65 | migration z between -2 and 2; enough cells | 0.68 | 5406 | inactive
IFNA1 | SID255350400 | 1.71 | migration z between -2 and 2; enough cells | 1.33 | 7595 | inactive
GALNT4 | SID255353743 | 1.02 | migration z between -2 and 2; enough cells | 1 | 5124 | inactive
NDUFS8 | SID255351188 | 0.32 | migration z between -2 and 2; enough cells | 0.97 | 6434 | inactive
MT1A | SID255351045 | 0.88 | migration z between -2 and 2; enough cells | 1.12 | 5692 | inactive
PXYLP1 | SID255362009 | -2.54 | migration z below -2; enough cells | 0.32 | 4247 | active
SWSAP1 | SID255362682 | 1.27 | migration z between -2 and 2; enough cells | 1.21 | 6380 | inactive
LYPLAL1 | SID255362735 | 0.76 | migration z between -2 and 2; enough cells | 0.95 | 7062 | inactive
EIF4A2 | SID255349467 | -0.88 | migration z between -2 and 2; enough cells | 0.66 | 6555 | inactive
PDE6A | SID255351471 | 1.27 | migration z between -2 and 2; enough cells | 1.05 | 5510 | inactive
ESX1 | SID255360784 | 0 | migration z between -2 and 2; enough cells | 0.88 | 6484 | inactive
AXIN1 | SID255353460 | 2.75 | migration z above 2; enough cells | 1.6 | 6197 | active
TRIM24 | SID255353827 | -0.83 | migration z between -2 and 2; enough cells | 0.64 | 3398 | inactive
ACKR1 | SID255349774 | -0.99 | migration z between -2 and 2; enough cells | 0.62 | 6200 | inactive
CYP2S1 | SID255357173 | -1.61 | migration z between -2 and 2; enough cells | 0.5 | 5121 | inactive
MAB21L2 | SID255355203 | 0.02 | migration z between -2 and 2; enough cells | 0.89 | 5251 | inactive
ZDHHC5 | SID255356553 | 0.52 | migration z between -2 and 2; enough cells | 1.02 | 6074 | inactive
TMED7 | SID255357409 | -1.15 | migration z between -2 and 2; enough cells | 0.59 | 5832 | inactive
AQP12A | SID255365366 | -1.2 | under 3300 nuclei; migration not judged | 0.57 | 3254 | inactive
CSNK1A1L | SID255362538 | -0.88 | migration z between -2 and 2; enough cells | 0.64 | 4578 | inactive
SYNC | SID255360874 | -1.18 | migration z between -2 and 2; enough cells | 0.57 | 3847 | inactive
KAT6A | SID255353360 | 0.08 | migration z between -2 and 2; enough cells | 0.9 | 7847 | inactive
OPN1MW | SID255349861 | 0.52 | migration z between -2 and 2; enough cells | 0.9 | 5552 | inactive
LAMP2 | SID255350725 | 0.26 | migration z between -2 and 2; enough cells | 0.86 | 6768 | inactive
FAM43A | SID255362902 | 0.55 | migration z between -2 and 2; enough cells | 1.02 | 6318 | inactive
DEPTOR | SID255360009 | 0.2 | migration z between -2 and 2; enough cells | 0.93 | 5719 | inactive
NPFFR1 | SID255359832 | -0.49 | migration z between -2 and 2; enough cells | 0.71 | 5283 | inactive
SLX1B | SID255360159 | -0.19 | migration z between -2 and 2; enough cells | 0.84 | 5300 | inactive
DDX3X | SID255349269 | 1.6 | migration z between -2 and 2; enough cells | 1.12 | 5660 | inactive
MSRB3 | SID255364432 | 0.8 | migration z between -2 and 2; enough cells | 0.96 | 5717 | inactive
ZNF33A | SID255353204 | 0.03 | migration z between -2 and 2; enough cells | 0.81 | 5366 | inactive
HS6ST1 | SID255354243 | -1.02 | migration z between -2 and 2; enough cells | 0.61 | 5479 | inactive
FAM78B | SID255363410 | -1.79 | migration z between -2 and 2; enough cells | 0.43 | 4968 | inactive
LILRB2 | SID255354969 | -2.59 | migration z below -2; enough cells | 0.2 | 4790 | active
AOAH | SID255348323 | 1.82 | migration z between -2 and 2; enough cells | 1.16 | 6475 | inactive
HDIP1 | SID255365475 | 0.3 | migration z between -2 and 2; enough cells | 0.97 | 4942 | inactive
CCDC181 | SID255359602 | 0.67 | migration z between -2 and 2; enough cells | 1.06 | 6281 | inactive
TBX2 | SID255352762 | 0.39 | migration z between -2 and 2; enough cells | 0.88 | 6641 | inactive
EXO5 | SID255360004 | 1.09 | migration z between -2 and 2; enough cells | 1.17 | 5616 | inactive
RTL6 | SID255361265 | -0.04 | migration z between -2 and 2; enough cells | 0.87 | 5269 | inactive
UCKL1 | SID255358308 | 0.73 | migration z between -2 and 2; enough cells | 0.94 | 5904 | inactive
HOXD1 | SID255350287 | -0.92 | migration z between -2 and 2; enough cells | 0.64 | 5904 | inactive
NEU2 | SID255351207 | -0.78 | migration z between -2 and 2; enough cells | 0.68 | 4452 | inactive
STIM2 | SID255359511 | 0.18 | migration z between -2 and 2; enough cells | 0.93 | 5868 | inactive
ASCC2 | SID255361221 | -0.26 | migration z between -2 and 2; enough cells | 0.82 | 5814 | inactive
RNASE12 | SID255366006 | 0.08 | migration z between -2 and 2; enough cells | 0.9 | 5214 | inactive
ZNF816 | SID255362665 | 1.44 | migration z between -2 and 2; enough cells | 1.26 | 6724 | inactive
LIMS3 | SID255362135 | -0.89 | migration z between -2 and 2; enough cells | 0.65 | 5385 | inactive
AMELX | SID255348289 | -0.71 | migration z between -2 and 2; enough cells | 0.7 | 5926 | inactive
MICA | SID255350965 | -0.67 | migration z between -2 and 2; enough cells | 0.71 | 4996 | inactive
PSME4 | SID255356064 | 0.68 | migration z between -2 and 2; enough cells | 1.06 | 7699 | inactive
TRIOBP | SID255355575 | 1.08 | migration z between -2 and 2; enough cells | 1.17 | 6183 | inactive
MYL2 | SID255351108 | -0.51 | migration z between -2 and 2; enough cells | 0.75 | 6657 | inactive
KRT84 | SID255350705 | 1.88 | migration z between -2 and 2; enough cells | 1.38 | 7189 | inactive
PARP11 | SID255359261 | 2.96 | migration z above 2; enough cells | 1.38 | 5626 | active
DEFB123 | SID255364386 | -0.32 | migration z between -2 and 2; enough cells | 0.8 | 5222 | inactive
SLC35A4 | SID255362207 | 0.34 | migration z between -2 and 2; enough cells | 0.98 | 7592 | inactive
MLYCD | SID255356228 | 2.17 | migration z above 2; enough cells | 1.23 | 5827 | active
ATP10B | SID255356004 | 0 | migration z between -2 and 2; enough cells | 0.8 | 5648 | inactive
ZFP3 | SID255362646 | 1.65 | migration z between -2 and 2; enough cells | 1.31 | 6380 | inactive
SCRN2 | SID255361834 | -0.57 | migration z between -2 and 2; enough cells | 0.7 | 5360 | inactive
OR1L3 | SID255356844 | 1.07 | migration z between -2 and 2; enough cells | 1.17 | 5871 | inactive
ZSCAN16 | SID255360771 | 0.09 | migration z between -2 and 2; enough cells | 0.91 | 4892 | inactive
